Laboratory results reported in patent US11234960B2, “Compositions and methods for improving mitochondrial function and treating neurodegenerative diseases and cognitive disorders” (Amazentis SA, priority 2010, dated 2022).
Some of these results come from one statement about several compounds together. At least one structure is not confirmed: it was looked up by name or label, or the drawing left a doubt.

Key:
PC-12 cells = test: Neurite outgrowth in NGF-differentiated PC-12 cells; type: cell-based, rat; conditions: 0.5 μM; for mean outgrowth, increase over differentiated control: 72 h (FIG. 7); for increase in number of PC-12 cells in the wells: versus differentiated control (FIG. 6)
Method: The ellagitannins and their metabolites tested in the assays were synthesized or purchased from suppliers which included Funakoshi, Sigma, and Chemos. Stock solutions were aliquoted and stored at −20° C.
PC-12 cells (ATCC CRL-1721) were cultured at 37° C., 5% CO2 in poly L-lysine-coated culture flasks in complete culture medium (RPMI 1640+10% heat-inactivated horse serum+5% fetal bovine serum).
Cell differentiation was performed in culture flasks 24 h after plating, in complete medium supplemented with 100 ng/mL NGF (2.5 S NGF, Invitrogen). The NGF-supplemented medium was renewed every third day, and differentiation was induced over an 8-day period.
All compounds to be tested were prepared just before the experiment as a 50 mM stock solution in dimethylsulfoxide (DMSO). The final DMSO concentration was 0.1% in the medium of all experimental groups.
For neurite outgrowth measurements, differentiated cells were washed with phosphate-buffered saline (PBS), collected after detachment and replated at a density of 5,000 cells/well (biocoat imaging 96 well plate) in complete medium supplemented with 100 ng/mL NGF, with or without 10 μM SP600125 (negative control), 1 mM dbcAMP (positive control), or tested compound at 5×10^−7 M. In the undifferentiated control group, no NGF was added after replating.
After 72 h in culture, PC-12 cells were washed with PBS and fixed in 1% paraformaldehyde solution for 20 minutes. After 3 washes with PBS, immunofluorescence labeling was performed with Texas Red Maleimide probe, which reacts with thiol groups of cysteine residues of proteins, permitting the visualization of the entire cell morphology, including neurites.
Immunofluorescence analysis was performed in automated confocal microscopy. Images were acquired with a BD pathway 855 system, under X20 objective with 8×8 field montage. Neurite outgrowth was then measured from acquired images with the neurite module of Metamorph® software. Total and mean outgrowth, total and mean number of processes per cell, and total and percentage of cells with extensive outgrowth (defined as outgrowth longer than 20 μm) were analyzed.

[1] = tested on: primary dopaminergic tyrosine hydroxylase (TH)-positive neurons; test: Neurite outgrowth in primary dopaminergic TH-positive neurons; type: cell-based, rat; conditions: for dendrite number, increase / dendritic length, increase: 0.1 μM; for dendrite number, increase: 72 h (FIG. 15); for dendritic length, increase: 72 h (FIG. 16); for increase in branching: 72 h, compounds 0.1 μM, SP600125 10 μM, dbcAMP 1 mM (FIG. 14)
Method: Primary mesencephalic cultures were prepared from rat E14 embryos. Ventral mesencephalon was carefully dissected and dissociated. Cells were then plated in DMEM F12 medium containing 10% heat inactivated horse serum at the density of 100,000 cells/well (96-well plate), with or without the JNK-specific inhibitor SP600125 (10 μM) (which served as a negative control) or dbcAMP (1 mM) (which served as a positive control), or the compounds tested each at the doses of 0.1 μM.
72 h after plating, the effects on the neurite outgrowth of dopaminergic tyrosine hydroxylase (TH)-positive neurons were measured from images acquired by automated confocal microscopy (X4 objective, montage 4×4) and covering the entire well surface, and quantified using the Neurite outgrowth module of Metamorph® software. Several representative parameters of neurite outgrowth were thus generated: total and mean outgrowth, total and mean number of processes per cell, and total and percentage of cells with extensive outgrowth (defined as outgrowth longer than 20 μm) were analyzed. All experiments were performed in quadruplicate.

O=C1OC[C@H]2OC(O)[C@H](O)[C@@H](O)[C@@H]2OC(=O)c2cc(O)c(O)c(O)c2-c2c(O)c(O)c3oc(=O)c4c(c(O)c(O)c5oc(=O)c2c3c54)-c2c1cc(O)c(O)c2O (mixture of isomers) [punicalin]
mean outgrowth, increase over differentiated control (PC-12 cells): > 30%

O=c1oc2c(O)c(O)cc3c(=O)oc4c(O)c(O)cc1c4c23 [ellagic acid]
dendrite number, increase [1]: > 18%
dendritic length, increase [1]: > 26%
increase in branching [1]: > 111%
mean outgrowth, increase over differentiated control (PC-12 cells): > 30%
percent of cells showing significant outgrowth (>20 μm), increase vs differentiated cells (PC-12 cells; 72 h (FIG. 8)): > 37%
number of processes, increase (PC-12 cells; 72 h, differentiated PC-12 cells (FIG. 9)): > 31%
increase in number of PC-12 cells in the wells (PC-12 cells; 72 h): > 30%

O=c1oc2cc(O)ccc2c2ccc(O)cc12 [urolithin A, 3,8-Dihydroxydibenzo-α-pyrone]
dendrite number, increase [1]: > 18%
dendritic length, increase [1]: > 26%
increase in branching [1]: > 111%
mean outgrowth, increase over differentiated control (PC-12 cells): > 30%
increase in number of PC-12 cells in the wells (PC-12 cells; 72 h): > 30%
